Series [1] is described as follows: Spin trapping of SO3− (horseradish peroxidase/H2O2/sulphite), ESR detection. Particulars: SO3− adduct. On the procedure: (§1) ESR spectra were obtained using a prototype spectrometer (Jeol (U.K) Ltd., Welwyn Garden City, England) equipped with a TE011 cylindrical cavity. Samples were analysed at room temperature in a WG-LC-11 quartz flat cell (Wilmad-Glass, Buena, N.J.). In general the instrument parameters were: microwave frequency 9.2 GHz, microwave power 4 mW, centre field (CF) 336.7 mT, sweep width (SW) ±5 mT, number of data points 4095, modulation frequency 100 kHz. For the spin traps reacted with horseradish peroxidase/H2O2/sulphite: sweep time 200 s, time constraint 0.1 s, modulation width 0.05. For the spin traps reacted with the oxidant and NO; sweep time 150 s, time constraint 0.3 s, modulation width 0.2 mT. A JEOL ES-DM1 digital manganese oxide marker (0.03 mm of the glass tube inserted per unit on the dial setting) with a dial setting of 500 was used to ensure the reproducibility between samples and to identify the position of the signals in the microwave field.
Solutions of the spin traps DBNBS, DCNBS and DMNBS (40 mM) (25, 50, […], 110.75, 125 and 156.25 μl for final concentrations of 4, 8, 14.68, 17.72, 20 and 25 mM in PBS) were added to 8 μl horseradish peroxidase (91 μM in PBS), 8 μl K2SO3 (100 mM in water) and 12.5 μl H2O2 (5 mM in PBS). […] The reaction mixture was mixed thoroughly and analysed by ESR spectroscopy after 25 min incubation at room temperature. […]

Series [2] in a line: Reaction of spin traps with oxidant in CAPD dialysate, ESR detection. Particulars: three-line signal. On the procedure:
as §1
Dialysate from a patient with renal failure on Continuous Ambulatory Peritoneal Dialysis (CAPD) was used for this study. […]
Solutions of 10 mM DBNBS and DCNBS (5, 8, 12, 25 and 30 μl for final concentrations of 0.5, 0.8, 1.2, 2.5 and 3.0 mM) were added to 60 μl of the dialysate. […] The reaction mixture was mixed thoroughly and analysed by ESR spectroscopy after 25 min incubation at room temperature.

For the molecule `O=Nc1c(Cl)cc(S(=O)(=O)[O-])cc1Cl.[Na+]` [DCNBS, 3,5-Dichloro-4-nitrosobenzenesulphonate, Sodium Salt], the “line width of the ESR signal” value in series [1] was found to be 0.085 mT. In addition, in series [2], the “peak width of ESR signal” value is 0.306 mT.
On to `O=Nc1c(Br)cc(S(=O)(=O)[O-])cc1Br.[Na+]` [DBNBS, 3,5-dibromo-4-nitrosobenzenesulphonate, sodium salt, reference compound], for which the “line width of the ESR signal” value in series [1] amounted to 0.087 mT. Also, the “peak width of ESR signal” value in series [2] is given as 0.495 mT.

(Values after patent publication US6767715B2, “Nitroso compounds and their use as spin traps” (Randox Laboratories Ltd., priority 2000, dated 2004).)
